We go through three substances from paper doi:10.1101/2024.10.09.24314670.

Chains of the proteins cited; added tags and fusions are not shown. Lines headed by an entry give the natural chain unless they say otherwise; changes in a name come on top.
UniProt O09106: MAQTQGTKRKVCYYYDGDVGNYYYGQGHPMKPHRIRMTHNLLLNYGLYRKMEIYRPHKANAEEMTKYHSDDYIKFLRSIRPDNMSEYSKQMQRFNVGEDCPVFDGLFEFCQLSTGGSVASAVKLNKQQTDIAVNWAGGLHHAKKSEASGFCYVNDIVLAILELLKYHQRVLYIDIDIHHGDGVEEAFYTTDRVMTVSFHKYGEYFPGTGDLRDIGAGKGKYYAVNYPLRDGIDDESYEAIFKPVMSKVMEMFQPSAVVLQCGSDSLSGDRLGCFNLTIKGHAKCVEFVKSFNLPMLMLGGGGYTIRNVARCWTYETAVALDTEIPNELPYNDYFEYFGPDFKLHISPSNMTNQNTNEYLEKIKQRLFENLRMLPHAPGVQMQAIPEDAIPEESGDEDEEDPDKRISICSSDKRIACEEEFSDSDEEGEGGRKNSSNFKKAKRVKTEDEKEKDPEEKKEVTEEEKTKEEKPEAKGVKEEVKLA
UniProt P50752: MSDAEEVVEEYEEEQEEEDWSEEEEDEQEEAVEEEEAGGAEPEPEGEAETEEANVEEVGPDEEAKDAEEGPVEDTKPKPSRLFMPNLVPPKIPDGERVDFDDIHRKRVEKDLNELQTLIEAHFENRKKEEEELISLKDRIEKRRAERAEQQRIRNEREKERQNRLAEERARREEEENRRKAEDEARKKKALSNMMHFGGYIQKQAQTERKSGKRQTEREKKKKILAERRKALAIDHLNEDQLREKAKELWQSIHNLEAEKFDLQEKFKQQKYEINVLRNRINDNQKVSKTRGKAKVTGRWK

Results are given in words; binding and its absence hold for the method and conditions named. Binding seen in cells or lysates may run through a third protein. Some results given as binding are weak or reduced against the parent protein; the word gives no strength.

The target of test [1] is HDAC1 (human (endogenous in hiPSC-derived cardiomyocytes)) (UniProt Q13547). Briefly: proximity ligation.
Test [2] concerns the target HDAC1 of mouse hearts (mouse (endogenous in mouse ventricle)) (UniProt O09106). Description: co-IP.
The target is the same in test [3]. Briefly: proximity ligation.

Consider “TNNT2 of Health-hCM (from UniProt P45379 1-298)”, for which, in test [1], the binding entry is “binds”.
For “TNNT2(WT) of wild type mouse hearts (from UniProt P50752 1-301)”, the binding result in test [2] and in test [3] was “binds” in each case.
For “mutant TNNT2 of Tnnt2^R154W/R154W (TT) mouse hearts (from UniProt P50752 1-301)”, the binding result in test [2] and in test [3] was “binds” each time.
